Publication PMC12518853

Sequences of proteins named here, by UniProt entry; tags and fusion partners are left off. Residues count along the entry.
UniProt P13597, residues 28-537: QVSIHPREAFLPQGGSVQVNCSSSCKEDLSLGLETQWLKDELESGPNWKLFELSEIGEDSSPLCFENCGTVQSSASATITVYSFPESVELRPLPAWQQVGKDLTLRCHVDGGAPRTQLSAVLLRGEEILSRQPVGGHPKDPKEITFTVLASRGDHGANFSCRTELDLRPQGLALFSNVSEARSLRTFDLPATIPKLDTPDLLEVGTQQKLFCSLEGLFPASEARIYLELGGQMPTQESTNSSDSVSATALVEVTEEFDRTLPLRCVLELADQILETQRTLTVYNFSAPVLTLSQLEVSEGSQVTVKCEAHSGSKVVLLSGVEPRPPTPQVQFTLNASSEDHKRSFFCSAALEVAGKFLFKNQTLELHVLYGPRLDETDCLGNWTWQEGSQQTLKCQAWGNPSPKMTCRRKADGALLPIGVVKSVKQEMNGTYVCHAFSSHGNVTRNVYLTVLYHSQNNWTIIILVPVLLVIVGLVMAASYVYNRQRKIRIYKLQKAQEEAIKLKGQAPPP
UniProt Q6PHN9: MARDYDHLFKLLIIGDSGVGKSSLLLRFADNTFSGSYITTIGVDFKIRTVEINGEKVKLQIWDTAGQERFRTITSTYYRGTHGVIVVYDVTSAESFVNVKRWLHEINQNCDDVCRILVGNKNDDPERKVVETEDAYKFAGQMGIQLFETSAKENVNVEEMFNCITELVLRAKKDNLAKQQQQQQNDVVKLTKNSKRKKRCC

Biological target: intercellular adhesion molecule 1 (ICAM1) (mouse (endogenous, cells of the co-IP not named)) (UniProt P13597)
Assay: affinity purification with mass spectrometry; IP-MS: Pierce MS-compatible Magnetic IP Kit; cell lysates incubated with the antibody at 4 °C overnight, then protein A/G magnetic beads for 2 h, five washes, eluate analysed by LC-MS/MS (searched against the Mus musculus UniProt database)

Rab35 (from UniProt Q6PHN9 1-201)
binding: no binding

B1: Rab27a (protein, UniProt Q9ERI2 1-221)
chain: MSDGDYDYLIKFLALGDSGVGKTSVLYQYTDGKFNSKFITTVGIDFREKRVVYRANGPDGAVGRGQRIHLQLWDTAGQERFRSLTTAFFRDAMGFLLLFDLTNEQSFLNVRNWISQLQMHAYCENPDIVLCGNKSDLEDQRAVKEEEARELAEKYGIPYFETSAANGTNISHAIEMLLDLIMKRMERCVDKSWIPEGVVRSNGHTSADQLSEEKEKGLCGC
binding: no binding

No constants are given. Whether binding was seen depends on the method and setting. In cells and extracts the contact can be indirect. Here binding means that the protein was enriched with, or labelled near, the bait; the list need not be complete. A no says only that the protein was not detected with the bait.
